# Measurements published in publication PMC5816610.
# By UniProt entry, the sequences of proteins in these tests, tags left out. Where a name states a change or a piece, a line headed by the entry shows the natural chain unless it says otherwise.
# UniProt P0ACJ8: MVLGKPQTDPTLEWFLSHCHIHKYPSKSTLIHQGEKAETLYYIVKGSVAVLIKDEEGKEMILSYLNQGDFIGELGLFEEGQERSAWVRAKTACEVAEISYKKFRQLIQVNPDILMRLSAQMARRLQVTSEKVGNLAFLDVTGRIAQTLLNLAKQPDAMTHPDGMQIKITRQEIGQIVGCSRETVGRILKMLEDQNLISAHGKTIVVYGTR
# Target: CRP (purified) (UniProt P0ACJ8)
# Assay: EMSA
# Conditions: 37 C, 1 pmol DNA, 10 min then 30 min with protein, 5% PAGE in 1xTBE, purified CRP +/-200 uM cAMP, recombinant protein, residues 1-210, protein details: pET28b NdeI/Bpu1102 insert, called native CRP, probe letters rebuilt from the primers and the genome; for binding signal (fold vs no cAMP): 200 uM cAMP; for binding result: no cAMP
Sequence,binding signal (fold vs no cAMP),binding result
GCGATCAGCATGAGGAGTTGGTCGTGCCGCGGGTTACCGGTTAGTTCGGTAAGGCTCATGAAAATTCCTCGAAAAACCATCACCCTGGCATTTTATACAAAAAGTGACAAAAAAGATCGGGTTTGATCACAGTCAGGGATCCCGGCTCGTCCACCGGGACGTGTGCATTTTAACGCCGCTACACCGCTGGCGAAGCGGACTGACTCCGCTAAATCCCCACTTGTTGCCAGCGCCACCGCCAAAGCGCCGTGAAAAACATCACCCGCACCTGTGGTATCTACCACATCAACTTTGAAGGCCGGTTGA (double strand) [yihV/W intergenic region],1.3,binds
GTCGGTAACCCTTCCACGTAATAGATGCGATCCATCACGGTTATACCTACACAAGCAACACGAATCATGGTCATTCCTTAAACATTTTGGGATGCGTTCATTTTAATTTCACCAATTGTTTAAAAAGTGACGGCTGTCAATTTTTTGACGATAAATTACAAATACGATCAAAAACAGACAAGCAAAGCATGTCATAAATGACAAAAAGTGACATAACTGTATTCAGGAGAGGGTTATGGCAGCAATCGCGTTTATCGGTTTAGGACAAATGGGTTCGCCAATGGCGAGCAATTTATTGCAGCAAGGGCATCAACTTCGCGTCTTTGATGTGAACG (double strand) [yihU/V intergenic region],1.3,binds

# Whether high values mean tight binding is not given here for every scale.
